Assay results from patent US20110301093A1.
No constants are given. Whether binding was seen depends on the method and setting. In cells and extracts the contact can be indirect. Some entries that bind do so weakly or less than the wild type. For part of these data: Tags and fused reporters may be left off the sequences shown.

Amino acid sequences for entries named in this document (tags omitted). A change or cut given only in a name is not applied to a line headed by its entry.
UniProt P10415: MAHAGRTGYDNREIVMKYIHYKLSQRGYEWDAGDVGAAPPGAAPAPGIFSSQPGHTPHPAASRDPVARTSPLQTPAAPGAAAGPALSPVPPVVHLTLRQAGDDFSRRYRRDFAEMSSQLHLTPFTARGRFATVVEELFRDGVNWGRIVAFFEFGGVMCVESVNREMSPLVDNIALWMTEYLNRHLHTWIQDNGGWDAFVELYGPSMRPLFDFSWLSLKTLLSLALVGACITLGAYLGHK
UniProt Q07817: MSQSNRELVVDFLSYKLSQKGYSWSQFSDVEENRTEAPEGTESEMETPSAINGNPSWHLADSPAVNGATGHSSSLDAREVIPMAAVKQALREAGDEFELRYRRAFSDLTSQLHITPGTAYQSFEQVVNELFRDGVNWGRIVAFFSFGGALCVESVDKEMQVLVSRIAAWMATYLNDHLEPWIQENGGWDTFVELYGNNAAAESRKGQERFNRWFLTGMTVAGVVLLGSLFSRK
UniProt Q14457: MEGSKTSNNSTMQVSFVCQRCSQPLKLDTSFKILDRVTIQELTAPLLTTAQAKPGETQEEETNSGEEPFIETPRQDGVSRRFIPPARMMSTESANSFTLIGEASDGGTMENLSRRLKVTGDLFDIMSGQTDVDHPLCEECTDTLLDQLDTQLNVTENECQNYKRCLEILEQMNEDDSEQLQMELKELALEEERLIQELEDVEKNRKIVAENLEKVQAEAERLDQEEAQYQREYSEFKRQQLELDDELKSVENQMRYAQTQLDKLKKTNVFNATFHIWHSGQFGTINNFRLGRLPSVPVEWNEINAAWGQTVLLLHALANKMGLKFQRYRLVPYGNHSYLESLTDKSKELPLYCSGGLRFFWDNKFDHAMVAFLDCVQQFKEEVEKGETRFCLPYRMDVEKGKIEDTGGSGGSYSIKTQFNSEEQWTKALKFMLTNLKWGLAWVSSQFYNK

Columns and labels:
endogenous DAPk [1] = molecular target: endogenous DAPk (UniProt P53355); assay: co-immunoprecipitation
Bcl-2 [2] = molecular target: Bcl-2 (UniProt P10415); assay: co-immunoprecipitation
Bcl-2 [3] = molecular target: Bcl-2 (UniProt P10415); assay: co-immunoprecipitation with anti-Flag from cotransfected HEK293T cells, anti-Bcl-2 blot; wild type is the reference
[4] = molecular target: T1, HA-tagged activated DAPk (ΔCaM) (UniProt P53355); assay: co-immunoprecipitation with anti-Flag from HEK293 cells transfected with ΔCaM DAPk
T1 sequence: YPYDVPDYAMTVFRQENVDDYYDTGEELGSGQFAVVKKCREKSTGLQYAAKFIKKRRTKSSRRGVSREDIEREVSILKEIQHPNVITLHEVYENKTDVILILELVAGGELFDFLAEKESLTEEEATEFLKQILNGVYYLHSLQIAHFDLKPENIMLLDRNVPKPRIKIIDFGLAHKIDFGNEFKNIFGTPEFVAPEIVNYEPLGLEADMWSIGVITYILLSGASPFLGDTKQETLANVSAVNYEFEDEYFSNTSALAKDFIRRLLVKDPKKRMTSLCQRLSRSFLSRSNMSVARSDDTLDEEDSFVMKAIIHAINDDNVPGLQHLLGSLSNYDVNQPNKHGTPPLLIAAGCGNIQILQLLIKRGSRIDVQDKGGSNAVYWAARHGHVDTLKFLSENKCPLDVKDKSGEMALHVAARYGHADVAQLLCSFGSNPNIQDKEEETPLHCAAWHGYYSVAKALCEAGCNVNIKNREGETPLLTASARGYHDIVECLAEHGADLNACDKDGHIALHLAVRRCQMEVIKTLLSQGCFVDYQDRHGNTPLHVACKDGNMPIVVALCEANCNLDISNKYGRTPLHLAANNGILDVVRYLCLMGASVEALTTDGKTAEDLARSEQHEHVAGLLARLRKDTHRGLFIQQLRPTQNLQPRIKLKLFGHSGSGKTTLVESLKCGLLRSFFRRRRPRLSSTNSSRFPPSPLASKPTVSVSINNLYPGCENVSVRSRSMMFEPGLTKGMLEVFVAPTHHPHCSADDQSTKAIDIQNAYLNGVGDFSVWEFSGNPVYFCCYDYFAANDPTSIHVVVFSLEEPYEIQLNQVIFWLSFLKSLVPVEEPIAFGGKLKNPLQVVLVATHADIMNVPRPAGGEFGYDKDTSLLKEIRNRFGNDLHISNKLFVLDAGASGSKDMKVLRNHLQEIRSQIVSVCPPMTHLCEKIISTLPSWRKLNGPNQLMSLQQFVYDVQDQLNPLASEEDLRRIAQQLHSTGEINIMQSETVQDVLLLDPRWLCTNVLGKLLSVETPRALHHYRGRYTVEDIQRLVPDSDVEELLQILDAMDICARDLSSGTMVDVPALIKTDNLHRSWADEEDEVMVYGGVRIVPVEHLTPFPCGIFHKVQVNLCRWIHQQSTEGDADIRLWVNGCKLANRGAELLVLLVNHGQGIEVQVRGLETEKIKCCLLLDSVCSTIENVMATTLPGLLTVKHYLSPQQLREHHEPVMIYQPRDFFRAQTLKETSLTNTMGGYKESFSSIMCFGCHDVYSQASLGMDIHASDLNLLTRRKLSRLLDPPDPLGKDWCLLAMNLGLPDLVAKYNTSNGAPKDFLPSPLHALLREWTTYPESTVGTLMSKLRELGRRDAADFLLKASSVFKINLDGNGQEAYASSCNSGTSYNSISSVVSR

endogenous DAPk [5] = molecular target: endogenous DAPk (UniProt P53355); assay: co-immunoprecipitation with anti-Flag from HEK293T cells
HA-tagged DAPk = HA-tagged DAPk (UniProt P53355); assay: co-immunoprecipitation with anti-Flag from co-transfected HEK293 cells
endogenous DAPk [6] = molecular target: endogenous DAPk (UniProt P53355); assay: GST pull-down from cell extracts, western blot
Bcl-2 [7] = molecular target: Bcl-2 (UniProt P10415); assay: GST pull-down from cell extracts, western blot
endogenous DAPk [8] = molecular target: endogenous DAPk (UniProt P53355); assay: GST pull-down
Bcl-XL [9] = molecular target: Bcl-XL (UniProt Q07817); assay: co-immunoprecipitation
Bcl-XL [10] = molecular target: Bcl-XL (UniProt Q07817); assay: co-immunoprecipitation with anti-Flag from co-transfected HEK293 cells

binding (endogenous DAPk [1])	binding (Bcl-2 [2])	binding (Bcl-2 [3])	binding [4]	binding (endogenous DAPk [5])	binding (HA-tagged DAPk)	binding (endogenous DAPk [6])	binding (Bcl-2 [7])	binding (endogenous DAPk [8])	binding (Bcl-XL [9])	binding (Bcl-XL [10])	Substance
binds	binds	binds	binds	binds	binds						Flag-tagged Beclin-1 (from UniProt Q14457 1-450)
						binds	binds	binds			GST-Beclin-1 (from UniProt Q14457 1-450)
			binds						binds	binds	Flag-Beclin-1 T119A (from UniProt Q14457 1-450)
